Measurements taken from patent publication US8435548B2 (Bio-FD&C Co., Ltd, priority 2009, dated 2013).

Test: general procedure: Fmoc solid-phase peptide synthesis; HOBt/DCC
Conditions: whole synthesis

Substance | isolated yield
Digalloyl-Tetrapeptide(Lysyl-Tyrosyl-Histidyl-Tyrosine) (KYHY) | 71%
Galloyl-Decapeptide(Tyrosyl-Glycyl-Glycyl-Phenylalanyl-Leucyl-Arginyl-Lysyl-Tyrosyl-Prolyl-Lysine) (SEQ ID No: 5) (YGGFLRKYPK) | 59%
